Data published in patent US10905757B2, “Cross-reactive T cell epitopes of HIV, SIV, and FIV for vaccines in humans and cats” (priority 2012, dated 2021).
“Also recorded” adds a separate entry of the source. Read-outs that look alike come from different tables or passages of the source. At least one peptide structure holds a part that was inferred or is arguable (an end, a ring closure or a residue). Some compounds share one wording; it may come from a single statement. Some results were stated once for a whole list of compounds, not compound by compound. Ends that are not written are not given here.

Tests used:
[1] = test system: CD3+CD4+ T cells from HIV+ subjects; assay: CFSE-proliferation, CD3+CD4+ T cells from HIV+ subjects; format: cell-based, human; design: key to CD4^− T-cell proliferation (4P): positive (+); negative (−) response; inhibitory (↓); not done (n); details: for CD4^− T-cell proliferation (4P): HIV^+ subjects compared to HIV^− control group; for CD4^+ T-cell Responder Frequency (%) / CD4^+ T-cell Responder Frequency: large 13-15mer peptides, yr 2, responders to Fp9 or Fp14 pool via CFSE proliferation; for CD4^+ T-cell Responder Frequency: responders/tested; for (magnitude) CD4 Proliferation: average positive values; for (magnitude) CD4 Proliferation / Responder Frequency in %, CD4 Proliferation: responders to Fp9 or Fp14 peptide pools
Procedure: 2×10^5-5×10^5 CFSE labeled PBMCs were incubated with 15-20 μg of peptides in 600 μL of RPMI media with 10% FBS for 5 days at 37° C. (5% CO2). After harvesting, they were labeled with allophycocyanin (APC), APC-H7, and Pacific Blue labeled monoclonal antibodies (MAb) to human CD3, CD4, and CD8, respectively and analyzed for T-cell proliferation by flow cytometry using BD LSRII (BD Biosciences). The proliferating CD4^+ or CD8^+ T cell populations were defined from the CD3^+ cell population as either CD3^+CD8^+ or CD3^+CD4^+T cells (mutually exclusive) with low CFSE (CFSE^low) staining.
(§1) Flow cytometry (FACS) for carboxyfluoresein diacetate succinimide ester (CFSE)-proliferation and intracellular cytotoxin staining (ICS). The CFSE-proliferation analysis was performed on PBMC according to the manufacturer's protocol (Invitrogen, Carlsbad, Calif.) and processed as previously described (Lichterfeld et al. (2004)). Modifications consisted of using 2.0-5.0×10^5 CFSE-labeled cells stimulated for 5 days (37° C., 5% CO^2) with 30 μg/well of total peptides in a pool (15 μg/well for individual peptide, Table 10) or 5 μg/mL PHA in AIM V medium containing 25 μg/mL of gentamycin and 10% heat-inactivated human serum. Subsequently these cells were harvested and labeled with the LIVE/DEAD fixable yellow dye (Invitrogen) and then treated 5 min with anti-CD16/CD32 antibody (Biolegend, San Diego, Calif.) for blocking non-specific binding before phenotype-specific antibodies. The following antibodies were used for the CFSE-proliferation analysis: anti-CD4 APC, anti-CD3 APC-H7, and anti-CD8 Pacific Blue (BD Biosciences, San Jose, Calif.).
(§2) In both analyses, 1.0-2.0×10^4 cells were fixed in phosphate-buffered saline (PBS) containing 2% paraformaldehyde and analyzed on BD LSRII using […] Software (BD Biosciences), with a positive threshold of 3% CFSE^low for CFSE-proliferation and 1% T cells expressing cytotoxin for ICS. The final value for each subject was derived after subtraction of the subject's medium control and the average value of peptide-stimulated cells from uninfected control subjects.
(§3) Flow cytometry (FACS) for measuring CFSE-proliferation and intracellular cytokine staining (ICS). Carboxyfluorescein diacetate succinimide ester (CFSE)-proliferation analysis was performed according to the manufacturer's protocol (Invitrogen) and processed as previously described (Lichterfeld et al. 2004) using the following modification: 2.5-5.0×10^5 CFSE-labeled PBMC stimulated for 4-5 days (37° C., 5% CO2) with 15-30 μg of peptides in culture media (AIM V medium, 25 μg/mL gentamycin, and 10% heat-inactivated fetal bovine serum). The ICS analysis was performed as previously described (Horton et al. 2007; Pattacini et al. 2012).
(§4) The antibodies used for the proliferation analysis consisted of anti-CD4 allophycocyanin (APC) anti-CD3 APC-H7, and anti-CD8 Pacific Blue, and those for ICS were anti-CD3 APC-H7, anti-CD4 BD Horizon V450, anti-CD8 FITC, anti-granzyme B (GrzB) Alexa 700, anti-granzyme A (GrzA) PE (BD Biosciences, Cat #555349, 560176, 558207, 560345, 555366, 560213, 558904), and anti-perforin PerCP (Abcam, Cat #ab86319). Both analyses were performed with BD LSRII and […]™ Software (BD Biosciences), using a positive threshold of >1% CFSE^low for CFSE-proliferation except for ICS studies with threshold of >0.1% T cells expressing cytotoxin. The final value for each subject was derived after subtracting the result of each HIV^+ subject with the media control followed by subtraction with the average response of the media-control subtracted HIV^− subjects.

[2] = test system: HIV-1 infection of normal human PBMC; assay: In vitro HIV-1 enhancing/inhibitory assay in normal human PBMC; format: cell-based; design: key to HIV enhancing or inhibitory (E/I): positive (+); negative (−) response; inhibitory (↓); not done (n); details: for HIV enhancing or inhibitory (E/I): in vitro; for effect on in vitro HIV-1 infection: normal human PBMC
[3] = test system: PBMC from FIV-vaccinated cats; assay: IFNγ ELISpot, PBMC from FIV-vaccinated cats (prototype vaccine, or prime plus MAP boosts); format: cell-based, cat; details: for IFNγ (SFU): prime 1x IWV, post-second MAP boost, peptide or MAP as culture stimulant, >50 positive
Source text: Peptide Fp4-3 (left), peptide Fp14-1 (middle) and MAP1 [right] were culture stimulants. IL2 and IFNγ ELISpot results of >50 spot forming units (SFU/10^6 PBMC) and CFSE-proliferation of >2 are considered positive (bolded). The prime-boost vaccination induced IL2 responses in 3 of 4 cats and IFNγ response in one. Larger responses were induced by MAP1 than individual peptides in culture.

[4] = test system: T cells from HIV− subjects; assay: CFSE-proliferation, CD8+ / CD4+ T cells from HIV− control subjects; format: cell-based, human; design: key to HIV^− control group (NC): positive (+); negative (−) response; inhibitory (↓); not done (n); details: for HIV^− control group (NC): response in HIV^− control group
Procedure: as §1, §2, §3, §4

Sequence: AEVKLYLKQSLSIA [Fp14-3]
- CD4^− T-cell proliferation (4P) [1]: +
- CD4^+ T-cell Responder Frequency (%) [1]: (0) %
- CD4^+ T-cell Responder Frequency [1]: 0/6
- HIV enhancing or inhibitory (E/I) [2]: −
- IFNγ responses in PBMC from FIV-vaccinated cats (in words) [3]: consistently low levels
- HIV^− control group (NC) [4]: −

Sequence: DQEQNTAEVKLYLK [Fp14-1]
- CD4^− T-cell proliferation (4P) [1]: +
- (magnitude) CD4 Proliferation [1]: low (The average positive values are considered low when the frequency of response is <15% CFSE)
- CD4^+ T-cell Responder Frequency (%) [1]: (20) %
- Responder Frequency in %, CD4 Proliferation [1]: 37%
- CD4^+ T-cell Responder Frequency [1]: 2/10
- HIV enhancing or inhibitory (E/I) [2]: −
- IFNγ responses in PBMC from FIV-vaccinated cats (in words) [3]: consistently low levels; also recorded: induced
- IFNγ (SFU) ([3]; cat DVB, boost-1 MAP1b, boost-2 MAP1b): 0/0 SFU/10^6 PBMC
- IFNγ (SFU) ([3]; cat DVD, boost-1 MAP1, boost-2 MAP1): 37 SFU/10^6 PBMC
- IFNγ (SFU) ([3]; cat QVQ, boost-1 MAP1b, boost-2 MAP1b): 0/0 SFU/10^6 PBMC
- IFNγ (SFU) ([3]; cat QVW, boost-1 MAP1, boost-2 MAP1): 0 SFU/10^6 PBMC
- HIV^− control group (NC) [4]: −

Sequence: FAPARMQCRAWYLEA [Fp9-3]
- (magnitude) CD4 Proliferation [1]: high (high when >30 CSFE)
- CD4^+ T-cell Responder Frequency (%) [1]: (14) %
- Responder Frequency in %, CD4 Proliferation [1]: 83%
- CD4^+ T-cell Responder Frequency [1]: 1/7
- effect on in vitro HIV-1 infection [2]: inhibited; also recorded: inhibition
- T-cell proliferation in HIV− subjects, share of the value before subtraction ([4]; CD8+ or CD4+ T cells): 25-51%

Sequence: KKKSGKWRMLIDFRV [F3-3]
- IFNγ responses in PBMC from FIV-vaccinated cats (in words) ([3]; listed as FRT3-3): modest; also recorded: high levels

Sequence: KLYLKQSLSIANA [Fp14-4]
- CD4^− T-cell proliferation (4P) [1]: +
- CD4^+ T-cell Responder Frequency (%) [1]: (17) %
- CD4^+ T-cell Responder Frequency [1]: 1/6
- HIV enhancing or inhibitory (E/I) [2]: −
- HIV^− control group (NC) [4]: −

Sequence: WRMLIDFRVLNKL [F3-4]
- effect on in vitro HIV-1 infection [2]: not
